Test [1] deals with USP7 (human (endogenous, cell line not stated)) (UniProt Q93009). As to the kind of experiment: co-IP; endogenous proteins from cell lysates (cell line not stated); USP7 antibody or EZH2 antibody; cells without and with shUSP7 or shEZH2 knock-down; IgG as negative control; immunoblot. In general terms: A western blot detects proteins with antibodies after separation by electrophoresis.

Amino acid sequences for entries named in this document (tags omitted).
UniProt Q93009: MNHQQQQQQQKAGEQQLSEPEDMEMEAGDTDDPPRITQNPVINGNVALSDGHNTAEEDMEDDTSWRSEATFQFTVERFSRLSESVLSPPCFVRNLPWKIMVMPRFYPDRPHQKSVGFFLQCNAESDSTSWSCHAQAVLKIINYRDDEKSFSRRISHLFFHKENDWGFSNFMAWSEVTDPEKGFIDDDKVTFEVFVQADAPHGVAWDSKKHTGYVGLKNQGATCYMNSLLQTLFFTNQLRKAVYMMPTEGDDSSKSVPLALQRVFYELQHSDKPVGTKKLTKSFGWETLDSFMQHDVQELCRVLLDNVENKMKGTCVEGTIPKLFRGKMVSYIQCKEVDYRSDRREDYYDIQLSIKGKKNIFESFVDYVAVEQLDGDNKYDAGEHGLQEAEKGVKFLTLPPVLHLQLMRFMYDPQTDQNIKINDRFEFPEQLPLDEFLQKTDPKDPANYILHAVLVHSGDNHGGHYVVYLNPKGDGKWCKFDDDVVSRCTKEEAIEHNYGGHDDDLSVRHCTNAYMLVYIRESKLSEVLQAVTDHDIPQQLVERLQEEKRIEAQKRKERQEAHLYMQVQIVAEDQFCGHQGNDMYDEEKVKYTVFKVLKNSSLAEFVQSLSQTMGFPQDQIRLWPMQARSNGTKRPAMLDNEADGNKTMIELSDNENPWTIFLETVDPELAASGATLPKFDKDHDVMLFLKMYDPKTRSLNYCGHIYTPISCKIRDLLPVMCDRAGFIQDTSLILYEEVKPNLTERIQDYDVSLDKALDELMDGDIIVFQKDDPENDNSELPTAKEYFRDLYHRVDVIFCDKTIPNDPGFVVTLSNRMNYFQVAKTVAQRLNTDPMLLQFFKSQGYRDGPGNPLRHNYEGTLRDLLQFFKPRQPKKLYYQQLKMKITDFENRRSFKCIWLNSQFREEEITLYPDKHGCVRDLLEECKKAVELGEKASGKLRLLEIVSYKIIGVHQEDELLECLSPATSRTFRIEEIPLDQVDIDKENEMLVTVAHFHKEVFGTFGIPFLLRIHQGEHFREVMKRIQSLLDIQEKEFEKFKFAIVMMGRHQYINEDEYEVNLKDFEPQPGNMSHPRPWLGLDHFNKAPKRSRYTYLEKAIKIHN
UniProt Q13547: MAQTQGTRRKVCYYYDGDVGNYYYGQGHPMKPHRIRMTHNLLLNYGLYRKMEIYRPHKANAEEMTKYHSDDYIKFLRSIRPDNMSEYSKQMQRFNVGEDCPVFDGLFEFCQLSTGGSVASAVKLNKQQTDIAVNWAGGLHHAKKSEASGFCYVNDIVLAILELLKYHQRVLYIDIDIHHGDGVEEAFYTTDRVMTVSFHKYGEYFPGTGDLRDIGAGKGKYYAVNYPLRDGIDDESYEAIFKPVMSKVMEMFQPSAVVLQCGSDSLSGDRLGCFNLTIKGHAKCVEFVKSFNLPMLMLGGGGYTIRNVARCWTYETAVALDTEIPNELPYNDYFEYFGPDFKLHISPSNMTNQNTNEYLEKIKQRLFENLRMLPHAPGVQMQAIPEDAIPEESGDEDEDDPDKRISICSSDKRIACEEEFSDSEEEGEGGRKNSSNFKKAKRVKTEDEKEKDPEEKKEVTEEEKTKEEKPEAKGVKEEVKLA
UniProt Q15910: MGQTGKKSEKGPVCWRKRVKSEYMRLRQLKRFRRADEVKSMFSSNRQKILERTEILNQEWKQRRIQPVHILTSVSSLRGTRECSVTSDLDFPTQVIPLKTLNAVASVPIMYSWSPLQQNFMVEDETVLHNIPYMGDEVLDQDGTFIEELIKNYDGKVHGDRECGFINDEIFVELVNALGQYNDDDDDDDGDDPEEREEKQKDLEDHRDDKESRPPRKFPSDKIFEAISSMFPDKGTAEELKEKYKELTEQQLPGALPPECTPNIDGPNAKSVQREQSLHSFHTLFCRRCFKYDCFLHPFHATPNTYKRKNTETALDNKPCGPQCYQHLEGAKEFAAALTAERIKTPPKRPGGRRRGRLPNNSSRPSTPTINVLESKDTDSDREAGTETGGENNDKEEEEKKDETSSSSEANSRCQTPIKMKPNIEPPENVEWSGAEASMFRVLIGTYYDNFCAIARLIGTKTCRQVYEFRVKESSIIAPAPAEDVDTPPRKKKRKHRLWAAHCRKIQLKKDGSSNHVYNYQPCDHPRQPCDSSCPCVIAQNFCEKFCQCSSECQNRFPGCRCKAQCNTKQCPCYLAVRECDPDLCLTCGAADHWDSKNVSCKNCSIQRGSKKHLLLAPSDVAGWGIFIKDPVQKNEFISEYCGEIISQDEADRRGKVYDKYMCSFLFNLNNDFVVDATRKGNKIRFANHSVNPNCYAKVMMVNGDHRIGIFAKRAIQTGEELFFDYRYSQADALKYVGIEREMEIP
UniProt Q15796: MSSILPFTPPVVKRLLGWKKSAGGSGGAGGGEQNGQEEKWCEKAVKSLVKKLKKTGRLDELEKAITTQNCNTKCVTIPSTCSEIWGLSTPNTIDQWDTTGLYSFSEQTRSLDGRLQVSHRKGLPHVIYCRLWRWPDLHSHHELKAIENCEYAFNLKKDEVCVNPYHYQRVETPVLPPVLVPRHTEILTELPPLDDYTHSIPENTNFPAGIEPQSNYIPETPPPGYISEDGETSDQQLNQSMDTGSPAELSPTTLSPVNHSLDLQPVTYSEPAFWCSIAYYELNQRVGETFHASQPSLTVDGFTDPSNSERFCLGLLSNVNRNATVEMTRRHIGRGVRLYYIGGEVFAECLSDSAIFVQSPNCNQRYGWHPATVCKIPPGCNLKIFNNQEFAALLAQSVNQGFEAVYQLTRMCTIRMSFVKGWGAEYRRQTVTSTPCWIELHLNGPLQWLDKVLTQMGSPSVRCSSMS
UniProt Q13485: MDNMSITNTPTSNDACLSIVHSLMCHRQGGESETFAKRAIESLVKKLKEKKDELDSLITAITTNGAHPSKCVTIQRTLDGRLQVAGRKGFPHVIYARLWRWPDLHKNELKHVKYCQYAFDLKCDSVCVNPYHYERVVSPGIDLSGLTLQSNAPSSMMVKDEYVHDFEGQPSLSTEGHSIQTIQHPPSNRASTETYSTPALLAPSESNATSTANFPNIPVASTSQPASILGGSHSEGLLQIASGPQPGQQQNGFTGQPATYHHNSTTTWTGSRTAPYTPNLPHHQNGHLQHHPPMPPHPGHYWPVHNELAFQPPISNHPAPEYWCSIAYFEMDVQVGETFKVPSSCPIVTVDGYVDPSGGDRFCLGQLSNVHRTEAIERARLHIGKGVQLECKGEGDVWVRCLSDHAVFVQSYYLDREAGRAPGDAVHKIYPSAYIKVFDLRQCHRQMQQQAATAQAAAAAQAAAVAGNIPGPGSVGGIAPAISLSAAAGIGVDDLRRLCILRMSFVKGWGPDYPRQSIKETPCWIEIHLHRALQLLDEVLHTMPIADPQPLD
UniProt P35222: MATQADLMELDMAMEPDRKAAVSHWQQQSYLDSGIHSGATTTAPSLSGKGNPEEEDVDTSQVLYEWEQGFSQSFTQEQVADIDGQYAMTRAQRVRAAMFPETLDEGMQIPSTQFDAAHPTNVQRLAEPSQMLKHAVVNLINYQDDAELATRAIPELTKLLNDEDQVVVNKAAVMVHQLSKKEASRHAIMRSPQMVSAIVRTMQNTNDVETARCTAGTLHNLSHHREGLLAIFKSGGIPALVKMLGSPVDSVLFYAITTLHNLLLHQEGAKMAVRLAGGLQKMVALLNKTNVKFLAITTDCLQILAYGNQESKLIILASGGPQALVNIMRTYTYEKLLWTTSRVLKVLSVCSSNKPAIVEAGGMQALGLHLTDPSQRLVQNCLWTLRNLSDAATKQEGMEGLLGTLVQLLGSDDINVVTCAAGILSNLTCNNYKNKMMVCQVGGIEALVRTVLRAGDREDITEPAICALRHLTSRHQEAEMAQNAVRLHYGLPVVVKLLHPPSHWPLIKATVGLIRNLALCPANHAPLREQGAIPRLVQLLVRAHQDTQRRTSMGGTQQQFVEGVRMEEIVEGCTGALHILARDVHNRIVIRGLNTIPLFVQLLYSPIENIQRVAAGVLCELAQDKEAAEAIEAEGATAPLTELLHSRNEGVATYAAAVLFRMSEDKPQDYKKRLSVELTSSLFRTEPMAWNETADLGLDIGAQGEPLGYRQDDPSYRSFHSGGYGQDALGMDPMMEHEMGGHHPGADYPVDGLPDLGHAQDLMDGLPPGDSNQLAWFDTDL

In test [2] the target is HDAC1 (human (endogenous in HepG2 and SW480)) (UniProt Q13547). The test is described as follows: co-IP; endogenous proteins from HepG2 nuclear extracts; antibody against EZH2, LSD1 or HDAC1 on protein G-sepharose, overnight at 4°C, washed in TBST (pH 7.2, 25 mM Tris-HCl, 150 mM NaCl, 0.5% Tween-20); IgG as negative control; immunoblot.
Test [3] concerns the target EZH2 (human (endogenous in HepG2 and SW480)) (UniProt Q15910). The test is described as follows: co-IP; endogenous proteins from SW480 cells; IgG as negative control; immunoblot.
Test [4] shares this target. As to the kind of experiment: co-IP; endogenous proteins from cell lysates (cell line not stated); USP7 antibody or EZH2 antibody; cells without and with shUSP7 or shEZH2 knock-down; IgG as negative control; immunoblot.
Test [5] has the same target. The test is described as follows: co-IP; endogenous proteins from HepG2 nuclear extracts; antibody against EZH2, LSD1 or HDAC1 on protein G-sepharose, overnight at 4°C, washed in TBST (pH 7.2, 25 mM Tris-HCl, 150 mM NaCl, 0.5% Tween-20); IgG as negative control; immunoblot.

These results are taken from paper PMC6510286.

Results are given in words; binding and its absence hold for the method and conditions named. In cells and extracts the contact can be indirect. Some entries that bind do so weakly or less than the wild type.

As for SMAD2 (from UniProt Q15796 1-467), the binding result in test [1] and in test [2] was “binds” each time.

On to SMAD4 (from UniProt Q13485 1-552), for which the binding result in test [1] and in test [2] was “binds” in each case.

As for β-CATENIN (from UniProt P35222 1-781), the binding result in test [3], in test [4], in test [5] and in test [2] was “binds” each time.
